Measurements reported in PubChem BioAssay AID1259300 (Sanger Institute, 2017).
Screen: 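Which knock-downs harm HCT15 alone or synergise with the drugs BYL719, cetuximab or trametinib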 (primary screen). Cell system: HCT15 colorectal cancer cells. Reagents: siRNA pool against human genes. Conditions: anchor drug or DMSO vehicle added 24 h after seeding: BYL719 1 µM, cetuximab 5 µg/ml, trametinib 10 nM; drug doses chosen to barely affect viability alone. Measurement: 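Replicate-mean viability relative to non-targeting pool control with robust z-score for knock-down without drug; per-drug synergy scores for BYL719 (1 µM), cetuximab (5 µg/ml), trametinib (10 nM)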. Direction: viability z-score, siRNA alone: higher = more viable cells after knock-down. Hit rule: 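a knock-down without drug that drives the robust viability z-score under -3 is active, i.e. essential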. Calls: active = essential: knock-down alone lowers viability (z below -3); inactive = no strong viability loss with knock-down alone.
Here is one part, drawn at random, of 794 reagents. 18 of them (2.3%) were called active. 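Calls rest on knock-down alone, not drug synergy; depositor treated synergy scores above 0.15 as synergistic; drug doses alone had little viability effect.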 Entries without a mark were called inactive. Not all columns of the deposit are shown. Not stated in the record: the amount of reagent, the time to read-out.

Target gene	viability z-score, siRNA alone
NEK1 (NIMA related kinase 1)	-0.0258
PRKCB (protein kinase C beta)	0.625
MVK (mevalonate kinase)	0.625
MAP2K1 (mitogen-activated protein kinase kinase 1)	-0.226
ZAP70 (zeta chain of T cell receptor associated protein kinase 70)	0.625
DCLK1 (doublecortin like kinase 1)	-0.857
NME4 (NME/NM23 nucleoside diphosphate kinase 4)	0.625
TYRO3 (TYRO3 protein tyrosine kinase)	0.625
KDR (kinase insert domain receptor)	0.625
MST1R (macrophage stimulating 1 receptor)	0.266
CSNK1G3 (casein kinase 1 gamma 3)	0.625
FGFR4 (fibroblast growth factor receptor 4)	0.625
MARK2 (microtubule affinity regulating kinase 2)	0.625
ABL1 (ABL proto-oncogene 1, non-receptor tyrosine kinase)	0.625
EFNB3 (ephrin B3)	-1.15
SMAD2 (SMAD family member 2)	0.625
STKLD1 (serine/threonine kinase like domain containing 1)	0.625
TGFBR1 (transforming growth factor beta receptor 1)	-0.618
TNNI3K (TNNI3 interacting kinase)	-0.399
EPHA1 (EPH receptor A1)	0.625
STK10 (serine/threonine kinase 10)	-0.0353
DBF4 (DBF4-CDC7 kinase regulatory subunit)	0.57
FXN (frataxin)	0.625

Copied from the listing for reference:
Target gene	viability z-score, siRNA alone
PRKCB (protein kinase C beta)	0.625
MVK (mevalonate kinase)	0.625
MAP2K1 (mitogen-activated protein kinase kinase 1)	-0.226
ZAP70 (zeta chain of T cell receptor associated protein kinase 70)	0.625
DCLK1 (doublecortin like kinase 1)	-0.857

Continued.
Target gene	viability z-score, siRNA alone
BTK (Bruton tyrosine kinase)	0.625
PI4K2A (phosphatidylinositol 4-kinase type 2 alpha)	0.625
GSK3B (glycogen synthase kinase 3 beta)	0.625
PDXK (pyridoxal kinase)	-0.664
MAPK11 (mitogen-activated protein kinase 11)	0.189
UCKL1 (uridine-cytidine kinase 1 like 1)	0.625
CDK7 (cyclin dependent kinase 7)	0.356
BRSK1 (BR serine/threonine kinase 1)	0.192
ZC3H11A (zinc finger CCCH-type containing 11A)	0.625
PAK2 (p21 (RAC1) activated kinase 2)	0.0175
LTK (leukocyte receptor tyrosine kinase)	0.183
IGF1R (insulin like growth factor 1 receptor)	0.521
CLSPN (claspin)	-0.108
DGKD (diacylglycerol kinase delta)	-0.131
IPPK (inositol-pentakisphosphate 2-kinase)	-0.00377
STK32B (serine/threonine kinase 32B)	-0.63
PHKA1 (phosphorylase kinase regulatory subunit alpha 1)	-0.297
PKM (pyruvate kinase M1/2)	-0.119
PTK2 (protein tyrosine kinase 2)	-1.29
PRKACB (protein kinase cAMP-activated catalytic subunit beta)	0.625
KRAS (KRas proto-oncogene, GTPase)	-1.22
PXK (PX domain containing serine/threonine kinase like)	0.625
ACO1 (aconitase 1)	-0.346
CLK4 (CDC like kinase 4)	0.467
NF1 (neurofibromin 1)	0.625
DLG1 (discs large MAGUK scaffold protein 1)	0.609
NPR2 (natriuretic peptide receptor 2)	-3.04 (active)
